{"source": "PubChem BioAssay AID1345085", "about": "(National Center for Advancing Translational Sciences (NCATS), 2018)", "note": "The shares of active, inactive and inconclusive entries below differ from those in the screen. Where the call is inconclusive, the potency comes from a doubtful curve fit. Activity calls are given as the source filed them. The call rests on the fitted dose curve; in most records, active means well fitted cell-killing curve with a large enough effect; inconclusive means small, poorly fitted or top-dose-only effect, or effect the other way; inactive means no such curve, though single readings can be large or run the other way. On the % scale 0 is the no-effect control and ±100 the full control effect; potency means the concentration at half of the fitted maximal effect."}
{"system": "PA-1", "experiment": "Confirmatory qHTS for gynecologic anti-cancer compounds from libraries of approved drugs and bioactive compounds; further: nearly all actives have a fitted effect of over 55% in size", "details": "gynecologic cancer cell panel viability, ATPlite luminescence, 48 h; series mostly up to 57.6 µM; activity change, negative = viability loss: at the top concentration", "description": "National Center for Advancing Translational Sciences [NCATS] Assay Overview: Chemotherapeutic drug responses vary from cancer to cancer and from patient to patient. These variations could be caused by a number of factors including patient genomic background, tumor mutations, tumor heterogeneity, and aspects of drug treatment. Chemotherapeutic drug resistance is also a common issue and can lead to ineffective treatment and patient death. Here we have profiled the cell killing effects of thousands of compounds to characterize the responses in three gynecological cancers, identify cancer-selective compounds, and understand the diversity of responses to these compounds from pan-cancer suppressors to single cell line selective compounds. In this assay, we screened a 7,914 compound drug library that included approved drug and bioactive compounds in six ovarian, three cervical, and two placental cancer cell lines using the ATPlite assay for cell viability. ATPlite is a luminescence based assay reliant on the conversion of a luciferase substrate to light in the presence of ATP. As a cytotoxic compound will suppress growth and decrease the number of cells, the concentration of ATP will decrease, and less light signal will be detected in the well. Hits were selected from the primary screen for follow-up confirmation. For the confirmation screens, the ovarian cancer cell lines included CAOV-3, SK-OV-3, SW 626, ES-2, PA-1, and TOV-21G. The cervical cancer cell lines included HeLa, Ca Ski, and C-33 A. The placental cancer cell lines included JEG-3 and JAR. HEK 293T cells were used as the control cell line to determine the selectivity index. The ATPlite assay was used to determine the IC50 values.\nAssay Protocol Summary: 1,000 cells in 4 uL of media were dispensed into white, solid bottom 1536-well plates using a Multidrop Combi (Thermo Scientific). The Assay plates were incubated for 16 hours at 37 C with 5% CO2 in assay plates, followed by the addition of 23 nL of DMSO or drug dissolved in DMSO. . Each compound was assayed in 11 concentrations (1:3 dilution) from 57.5 uM to 0.977 nM, using the automated Wako 1536 Pin Tool workstation and incubated at 37 C with 5% CO2 48 hours. 4 uL of ATPlite, the ATP monitoring reagent, was then added to the each well of the assay plates using the Multidrop Combi reagent dispenser followed by incubation for 15 minutes at room temperature. The resulting luminescence was measured using the ViewLux plate reader."}
{"smiles": "CN[C@@H](C)C(=O)N[C@H]1CN(C(=O)CC(C)C)CC[C@H]2CC[C@@H](C(=O)NC(c3ccccc3)c3ccccc3)N2C1=O", "activity change, negative = viability loss": "inactive: -1.71%"}
{"smiles": "O=C(/C=C/c1cccc(S(=O)(=O)Nc2ccccc2)c1)NO", "Potency": "active: 595 nM"}
{"smiles": "Cc1c(C)n(Cc2ccc(-c3ccccc3C(=O)O)cc2)c2ccc(C(=O)N[C@@H](C)c3ccc([N+](=O)[O-])cc3)cc12", "activity change, negative = viability loss": "inactive: -26.3%"}
{"smiles": "Cc1nc(Nc2ncc(C(=O)Nc3c(C)cccc3Cl)s2)cc(N2CCN(CCO)CC2)n1", "Potency": "inconclusive: 30600 nM [cytotoxic, partial curve, poor fit]"}
{"smiles": "COc1ccccc1N1CCN(CC(O)COc2cccc3ccccc23)CC1", "note": "(stereo not given)", "activity change, negative = viability loss": "inactive: -27.1%"}
{"smiles": "O=c1[nH]c(=O)n([C@H]2C[C@H](O)[C@@H](CO)O2)cc1Br", "activity change, negative = viability loss": "inactive: -6.35%"}
{"smiles": "CN1C(=O)C(Cc2c[nH]c3ccccc23)NC1=S", "note": "(stereo not given)", "activity change, negative = viability loss": "inactive: 11% [at 19.5 µM]"}
{"smiles": "Cc1ccc(-n2[nH]c(C)c(N=Nc3cccc(-c4cccc(C(=O)O)c4)c3O)c2=O)cc1C", "Potency": "inconclusive: 34.3 nM [rising, full curve, poor fit]"}
{"smiles": "Cn1cnc2c(F)c(Nc3ccc(Br)cc3Cl)c(C(=O)NOCCO)cc21", "Potency": "inconclusive: 12200 nM [cytotoxic, partial curve]"}
{"smiles": "CN(C)CC/C=C1\\c2ccccc2COc2ccccc21", "activity change, negative = viability loss": "inactive: 6.3%"}
{"smiles": "CCOC(=O)C1=C(C)NC2=C(C(=O)CC(C)(C)C2)C1c1ccc(-c2ccccc2)cc1", "note": "(stereo not given)", "Potency": "inconclusive: 43200 nM [cytotoxic, single point]"}
{"smiles": "NS(=O)(=O)c1ccc(Nc2nc(OCC3CCCCC3)c3[nH]cnc3n2)cc1", "activity change, negative = viability loss": "inactive: 35.2%"}
{"smiles": "c1nc2nc(Nc3ccc(N4CCOCC4)cc3)nc(NC3CCCCC3)c2[nH]1", "Potency": "inconclusive: 530 nM [cytotoxic, full curve]"}
{"smiles": "CNc1nc(Nc2ccc(C(=O)N3CCOCC3)cc2OC)ncc1Cl", "activity change, negative = viability loss": "inactive: 3.04%"}
{"smiles": "Nc1ncnc2c1ncn2[C@@H]1O[C@H](CO)C[C@H]1O", "Potency": "inconclusive: 1720 nM [rising, partial curve, poor fit]"}
{"smiles": "COC(=O)c1ccc2c(C(=Nc3ccc(N(C)C(=O)CN4CCN(C)CC4)cc3)c3ccccc3)c(O)[nH]c2c1", "Potency": "inconclusive: 10900 nM [cytotoxic, full curve, poor fit]"}
{"smiles": "Cc1cc(SCc2sc(-c3ccc(C(F)(F)F)cc3)nc2C)ccc1OCC(=O)O", "activity change, negative = viability loss": "inactive: -7.86%"}
{"smiles": "Cc1ccc2nc(N)[nH]c(=O)c2c1Sc1ccncc1", "Potency": "inconclusive: 4320 nM [cytotoxic, full curve]"}
{"smiles": "O=C(O)c1ccc(Nc2ncc3c(n2)-c2ccc(Cl)cc2C(c2c(F)cccc2F)=NC3)cc1", "Potency": "active: 968 nM"}
{"smiles": "CCCCN(CCCC)CC(O)c1cc(Cl)cc2c1-c1ccc(Cl)cc1/C2=C/c1ccc(Cl)cc1", "note": "(stereo not given)", "Potency": "inconclusive: 2730 nM [rising, partial curve]"}
{"smiles": "Oc1cn2c(n1)Nc1ccc(Cl)c(Cl)c1C2", "activity change, negative = viability loss": "inactive: 5.17% [at 19.5 µM]"}
{"smiles": "CCN(CC)CCCC(C)Nc1ccnc2cc(Cl)ccc12", "note": "(stereo not given)", "activity change, negative = viability loss": "inactive: -1.96% [at 19.5 µM]"}
{"smiles": "CC[C@H](Nc1ncnc2nc[nH]c12)c1nc2cccc(F)c2c(=O)n1-c1ccccc1", "Potency": "inconclusive: 1.3 nM [rising, full curve]"}
{"smiles": "Cc1ccccc1C(OCCN(C)C)c1ccccc1", "note": "(stereo not given)", "Potency": "inconclusive: 30.6 nM [rising, partial curve, poor fit]"}
{"smiles": "CN1C2CCC1CC(OC(=O)[C@H](CO)c1ccccc1)C2", "note": "(stereo not given in full)", "activity change, negative = viability loss": "inactive: -5.44%"}
{"smiles": "CC[C@@]1(O)C(=O)OCc2c1cc1n(c2=O)Cc2c-1nc1ccccc1c2/C=N/OC(C)(C)C", "Potency": "active: 27.3 nM"}
{"smiles": "CN(C)C(CCOc1cccc2ccccc12)c1ccccc1", "note": "(stereo not given)", "Potency": "inconclusive: 15300 nM [cytotoxic, partial curve]"}
{"smiles": "CO[C@@]12[C@H](COC(N)=O)C3=C(C(=O)C(C)=C(N)C3=O)N1C[C@@H]1N[C@@H]12", "activity change, negative = viability loss": "inactive: 12.8%"}
{"smiles": "COC(C)(C)CCn1nc(Nc2c(C)cccc2C)c2cnc(Nc3ccc(OCCN4CCCC4)c(F)c3)nc21", "Potency": "inconclusive: 6110 nM [cytotoxic, full curve]"}
{"smiles": "CC(C)C[C@H](NC(=O)[C@H](Cc1ccccc1)NC(=O)c1cnccn1)B(O)O", "Potency": "active: 38.5 nM"}
{"smiles": "CNC(=O)CN1CCC(Oc2cc3c(Nc4cccc(Cl)c4F)ncnc3cc2OC)CC1", "Potency": "inconclusive: 43200 nM [cytotoxic, partial curve, poor fit]"}
{"smiles": "O=C1N(c2ccccc2)c2ccccc2C1(Cc1ccncc1)Cc1ccncc1", "activity change, negative = viability loss": "inactive: 29.4%"}
{"smiles": "CN(C)/N=N/c1nc[nH]c1C(N)=O", "Potency": "inconclusive: 27300 nM [cytotoxic, partial curve]"}
{"smiles": "CC(=O)Nc1cccc(-n2c(=O)n(C3CC3)c(=O)c3c(Nc4ccc(I)cc4F)n(C)c(=O)c(C)c32)c1", "Potency": "inconclusive: 122 nM [cytotoxic, full curve]"}
{"smiles": "CCN1C[C@H](C)n2c(c(O)c3c(=O)n(Cc4ccc(F)c(Cl)c4)nc(C(=O)NC)c32)C1=O", "activity change, negative = viability loss": "inactive: 33.3%"}
{"smiles": "C#C[C@]1(O)CC[C@H]2[C@@H]3CCC4=CC(=O)CC[C@@H]4[C@H]3CC[C@@]21CC", "activity change, negative = viability loss": "inactive: -1.74%"}
{"smiles": "COc1cc2ncnc(Nc3ccc(F)c(Cl)c3)c2cc1OCCCN1CCOCC1", "Potency": "inconclusive: 12200 nM [cytotoxic, partial curve]"}
{"smiles": "Cn1cc(-c2ccc3ncc(Cc4ccc5ncccc5c4)n3n2)cn1", "activity change, negative = viability loss": "inactive: 6.59%"}
{"smiles": "Cc1nc(NC(=O)N2CCCC2C(N)=O)sc1-c1csc(C(C)(C)C)n1", "note": "(stereo not given)", "Potency": "active: 27300 nM"}
{"smiles": "CN(Cc1cnc2nc(N)nc(N)c2n1)c1ccc(C(=O)N[C@@H](CCC(=O)O)C(=O)O)cc1", "Potency": "inconclusive: 432 nM [cytotoxic, single point]"}
